Patent publication US20200369755A1
No constants are given. Whether binding was seen depends on the method and setting. Some binding calls cover weakened binding; strength is not graded here.

Amino acid sequences for entries named in this document (tags omitted). A change or cut given only in a name is not applied to a line headed by its entry. Chains listed by the source or under a name are the forms on record and can include a tag or linker.
4R tau fibrils (P10636, form named): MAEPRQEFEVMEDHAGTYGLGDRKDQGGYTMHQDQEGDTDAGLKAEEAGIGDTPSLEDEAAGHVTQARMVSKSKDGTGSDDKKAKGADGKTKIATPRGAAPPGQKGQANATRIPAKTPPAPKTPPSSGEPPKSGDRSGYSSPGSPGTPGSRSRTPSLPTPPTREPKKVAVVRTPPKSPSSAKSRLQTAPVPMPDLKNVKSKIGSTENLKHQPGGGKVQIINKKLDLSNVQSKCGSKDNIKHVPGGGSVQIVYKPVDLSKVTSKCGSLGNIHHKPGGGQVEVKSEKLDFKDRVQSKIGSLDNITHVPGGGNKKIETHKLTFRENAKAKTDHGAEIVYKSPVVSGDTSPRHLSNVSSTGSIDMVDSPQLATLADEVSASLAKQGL

How the values were obtained:
4R tau fibrils [1] = biological target: 4R tau fibrils (UniProt P10636); test: ELISA on plate-coated preformed fibrils
[2] = biological target: mixed fibrils of 3-repeat and 4-repeat tau (UniProt P10636); test: ELISA on plate-coated preformed fibrils
[3] = biological target: mixed fibrils of 3-repeat and 4-repeat tau (UniProt P10636); test: ELISA on plates coated with preformed mixed 3R/4R tau fibrils, biotinylated antibody, streptavidin-HRP, OPD, A490 [binding to mixed fibrils]
4R tau fibrils [4] = biological target: 4R tau fibrils (UniProt P10636); test: ELISA on fibrils
[5] = biological target: mixed fibrils of 3-repeat and 4-repeat tau (UniProt P10636); test: ELISA on fibrils

Measured: binding

B1: hu3D6VHv1bA11/L2-DIM4 (antibody, V domains shown)
VH: EVQLVQSGAEVVKPGATVKISCKASGFNIKDYYLHWVRQRPGQGLEWIGWIDPENGDTVYDPKFQGRATITADTSTDTAYLQLGSLTSEDTAVYFCSTLDFWGQGTLVTVSS
VL: DVVMTQSPLSLPVTLGQPASISCKSSQSLLDSDGKTYLNWLQQRPGQSPRRLIYLVGKRDSGVPDRFSGSGSGTDFTLKISRVEAEDVGVYYCWQGTHFPYTFGGGTKLEIK
binds: all assays above
